Data published in article PMC8980085.
No constants are given. Whether binding was seen depends on the method and setting. Binding seen in cells or lysates may run through a third protein. Some binding calls cover weakened binding; strength is not graded here.

Sequences of proteins named here, by UniProt entry; tags and fusion partners are left off.
UniProt O96013: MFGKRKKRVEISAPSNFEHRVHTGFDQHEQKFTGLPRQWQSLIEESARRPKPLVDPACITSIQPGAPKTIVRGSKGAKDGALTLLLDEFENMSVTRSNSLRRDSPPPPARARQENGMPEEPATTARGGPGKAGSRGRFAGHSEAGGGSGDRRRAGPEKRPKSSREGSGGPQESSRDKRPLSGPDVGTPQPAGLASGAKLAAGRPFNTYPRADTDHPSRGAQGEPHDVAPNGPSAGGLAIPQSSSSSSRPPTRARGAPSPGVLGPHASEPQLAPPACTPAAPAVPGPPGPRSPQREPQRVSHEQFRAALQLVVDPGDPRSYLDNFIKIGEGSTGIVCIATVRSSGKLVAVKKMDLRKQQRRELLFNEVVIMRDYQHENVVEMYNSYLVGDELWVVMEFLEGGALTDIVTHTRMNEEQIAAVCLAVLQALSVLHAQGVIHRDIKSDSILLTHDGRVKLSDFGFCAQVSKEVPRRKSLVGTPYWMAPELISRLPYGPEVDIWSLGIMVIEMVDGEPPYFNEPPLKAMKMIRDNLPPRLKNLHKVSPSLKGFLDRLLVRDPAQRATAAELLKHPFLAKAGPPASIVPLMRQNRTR
UniProt P28482: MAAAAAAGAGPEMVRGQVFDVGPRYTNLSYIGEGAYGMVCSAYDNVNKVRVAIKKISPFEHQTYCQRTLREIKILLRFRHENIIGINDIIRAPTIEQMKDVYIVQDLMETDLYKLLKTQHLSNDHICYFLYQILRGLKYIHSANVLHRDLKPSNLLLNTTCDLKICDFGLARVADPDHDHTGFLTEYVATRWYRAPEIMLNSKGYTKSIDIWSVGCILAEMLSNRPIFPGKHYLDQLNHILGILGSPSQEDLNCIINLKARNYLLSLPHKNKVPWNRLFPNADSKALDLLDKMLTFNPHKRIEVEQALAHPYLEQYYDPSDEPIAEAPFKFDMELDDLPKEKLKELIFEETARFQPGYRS

Biological target: p21-activated kinase 4 (PAK4) (human (endogenous in KYSE150 and KYSE450)) (UniProt O96013)
Assay: co-IP; endogenous PAK4 precipitated with PAK4 antibody and protein A/G agarose beads from KYSE150 and KYSE450 lysates (50 mM Tris-HCl pH 8.0, 0.5% NP40, 150 mM NaCl, 4 °C overnight); cells treated with 5 μM Nuplazid or DMSO for 24 h; western blot for MAPK1 / p-MAPK1 T185/Y187

binding: binds
Substance: MAPK1 (from UniProt P28482 1-360) (enzyme)
